Source: PubChem BioAssay AID686943 (Drosophila RNAi Screening Center, 2013)
Test: 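Fly genes whose loss alters ERK activation after insulin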 (primary screen). Cells: Drosophila S2R+ haemocyte-like cells expressing YFP-tagged ERK (Rolled). Knock-down reagent: long dsRNA against Drosophila genes. Conditions: insulin stimulation versus unstimulated cells; dose and duration not given. Measurement: 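Antibody staining for doubly phosphorylated ERK divided by ERK-YFP signal, as plate z-scores, in insulin-treated and untreated cells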. Reading the numbers: replicate 1, z-score of dpERK with insulin and replicate 2, z-score of dpERK with insulin: higher = more active ERK per ERK-YFP after insulin; replicate 1, z-score of dpERK under basal conditions: higher = more basal active ERK per ERK-YFP; replicate 1, z-score of ERK-YFP with insulin: higher = more YFP-tagged ERK signal.
In all, the deposit lists about 23,000 reagents; shown is an unselected part of those with a known target gene and a result. 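Extra replicates exist only for a retested subset of genes; insulin dose and duration not given; both raised and lowered dpERK matter.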 Names joined by + are all predicted targets of the reagent. Not stated in the record: the amount of reagent, the time to read-out.

gene | amplicon | replicate 1, z-score of dpERK with insulin | replicate 2, z-score of dpERK with insulin | replicate 1, z-score of dpERK under basal conditions | replicate 1, z-score of ERK-YFP with insulin
CG14502 | DRSC06473 | 0.44 | 0.68 | 0.28 | 0.61
CG11598 | DRSC14331 | 0.15 | 0.61 | -0.89 | 0.44
Acadvl | DRSC07022 | 0.31 | -0.02 | 1.17 | -0.17
Mul1 | DRSC08174 | -0.62 | -0.18 | 0.81 | 0.74
comm | DRSC11336 | 1.49 | 1.51 | -1.56 | -0.02
l(2)k10201 | DRSC06439 | 0.59 | 0.28 | 0.25 | -0.18
l(2)k10201 | DRSC07640 | 1 | 0.52 | -0.48 | 0.26
goe | DRSC19345 | 0.44 | -0.15 | 1.01 | -0.15
RtGEF | DRSC03604 | 0.02 | -0.38 | -1.76 | 0.5
RtGEF | DRSC22207 | -0.81 | 0.08 | -0.2 | 0.36
CG17325 + CG42305 | DRSC02602 | 0.26 | 0.1 | 1.11 | -0.53
CG4049 | DRSC04443 | -0.09 | 0.28 | -0.34 | -0.38
Cpr50Ca | DRSC05454 | -0.37 | 0.55 | -0.01 | -0.56
Cpr50Ca | DRSC06372 | 1.18 | 0.71 | -0.9 | -0.27
Cpr50Ca | DRSC06375 | 0.39 | 0.08 | -0.01 | 0.19
CG31706 | DRSC22704 | 0.06 | 0.16 | -0.98 | -0.09
CG8001 | DRSC08611 | 0.08 | 0.19 | 1.56 | 0.3
CG12640 | DRSC17847 | 0.16 | -0.63 | 0.42 | -0.51
Taf6 | DRSC11299 | 0.36 | 0.29 | -2.13 | 2.15
TyrRS-m | DRSC04286 | -0.37 | -0.03 | 0.85 | 0.21
ccb | DRSC20501 | -0.41 | -0.07 | 3.55 | 0.69
CG32985 | DRSC02634 | 0.27 | 0.88 | 1.09 | -0.61
gish | DRSC16154 | -0.82 | -2.13 | -0.3 | -0.28
CG32633 | DRSC18987 | 0.01 | -0.27 | -0.19 | 0.33

The list goes on; the last 2 above are carried over.
gene | amplicon | replicate 1, z-score of dpERK with insulin | replicate 2, z-score of dpERK with insulin | replicate 1, z-score of dpERK under basal conditions | replicate 1, z-score of ERK-YFP with insulin
gish | DRSC16154 | -0.82 | -2.13 | -0.3 | -0.28
CG32633 | DRSC18987 | 0.01 | -0.27 | -0.19 | 0.33
CG42568 + DnaJ-60 | DRSC04207 | -1.25 | 0.63 | -0.59 | -0.93
CG42568 + DnaJ-60 | DRSC04611 | 0.12 | 0.33 | 0.17 | 0.45
CG14054 | DRSC17909 | -0.18 | 0.48 | -0.28 | -0.22
CG13369 | DRSC18481 | -1.18 | -0.7 | -0.9 | -0.19
Grip | DRSC17940 | -3.59 | -2.89 | -2.07 | -0.23
Grip | DRSC18395 | -0.09 | -0.02 | 0.32 | 1.02
CG7058 | DRSC20021 | -0.28 | -0.21 | -0.48 | 0.72
CG6592 | DRSC10669 | -0.13 | 0.25 | 0.07 | 0.3
spz6 | DRSC04533 | -0.53 | 0.31 | 0.08 | 0.74
CheB74a | DRSC09503 | -0.85 | -0.49 | -0.24 | 0.25
CG32276 | DRSC08027 | 0.21 | 0.32 | -0.08 | 0.76
CG13482 | DRSC10024 | 0.31 | 0.58 | 1.27 | 1.67
Cyt-b5 | DRSC07392 | -0.08 | -0.6 | 0.14 | 0.74
mRpL18 | DRSC06142 | -1.05 | -0.15 | 1.41 | 1.45
CG3544 | DRSC00613 | -0.29 | -0.31 | -0.42 | 0.27
CG30413 | DRSC04001 | -0.22 | -0.02 | -1.19 | -0.25
I-2 | DRSC11194 | -1.24 | -2.84 | -1.35 | -1.03
CG5504 | DRSC04701 | 0.22 | 0.58 | -0.59 | 0
lbm | DRSC07643 | -0.06 | -0.1 | 0.35 | -0.07
TfIIA-S-2 | DRSC17791 | -0.28 | -1.01 | 0.39 | 0.6
CG14696 | DRSC14919 | -0.25 | -0.98 | 0.63 | 0.46
Nep4 | DRSC15539 | 0.67 | 0.05 | 0.44 | 0.15
CG13999 | DRSC02331 | 0.24 | 1.18 | 0.53 | 0
MFS18 | DRSC00452 | -0.31 | 0.4 | -0.56 | 0.06
Cec2 | DRSC21885 | -0.19 | 0.89 | -0.61 | 0.27
E(spl)m4-BFM | DRSC16992 | 1.16 | -0.21 | 0.14 | 0.15
gem | DRSC06093 | -0.36 | -0.64 | 0.36 | 0.01
gem | DRSC06847 | -0.34 | -0.56 | -0.74 | -0.08
Det | DRSC14489 | 0.29 | 0.39 | 0.8 | -0.14
CG16779 | DRSC15153 | -1.07 | -1.22 | 0.03 | -0.19
Inos | DRSC07655 | 0.04 | -0.28 | -0.45 | -0.43
CG13594 | DRSC04229 | 0.26 | 0.6 | -1.09 | 0.08
CG7423 | DRSC20044 | 1.15 | -0.32 | 0.87 | 0.46
